Our source for the binding values is article PMC8975821.

Protein sequences, listed by entry. Tags and fused reporters are not part of them.
UniProt Q6UXN9: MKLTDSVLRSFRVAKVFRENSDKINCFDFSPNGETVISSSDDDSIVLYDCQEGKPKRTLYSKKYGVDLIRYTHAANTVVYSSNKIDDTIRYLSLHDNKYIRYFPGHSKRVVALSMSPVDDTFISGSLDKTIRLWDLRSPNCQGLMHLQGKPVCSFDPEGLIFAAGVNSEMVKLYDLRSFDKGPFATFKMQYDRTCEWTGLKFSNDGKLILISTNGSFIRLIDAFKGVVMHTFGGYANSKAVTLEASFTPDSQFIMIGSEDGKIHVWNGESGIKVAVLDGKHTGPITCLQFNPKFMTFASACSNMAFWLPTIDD
UniProt P36873: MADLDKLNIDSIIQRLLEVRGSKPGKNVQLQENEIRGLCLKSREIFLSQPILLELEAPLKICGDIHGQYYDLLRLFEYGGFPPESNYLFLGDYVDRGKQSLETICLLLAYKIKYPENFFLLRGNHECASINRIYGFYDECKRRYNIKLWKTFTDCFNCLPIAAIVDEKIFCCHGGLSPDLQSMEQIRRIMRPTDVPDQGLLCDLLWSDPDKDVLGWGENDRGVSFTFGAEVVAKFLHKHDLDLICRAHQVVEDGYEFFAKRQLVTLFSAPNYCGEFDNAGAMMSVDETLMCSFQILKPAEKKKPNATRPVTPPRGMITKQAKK

In experiment [1] the target is T1, PNUTS (human (endogenous in K562)) (UniProt Q96QC0).
T1 sequence: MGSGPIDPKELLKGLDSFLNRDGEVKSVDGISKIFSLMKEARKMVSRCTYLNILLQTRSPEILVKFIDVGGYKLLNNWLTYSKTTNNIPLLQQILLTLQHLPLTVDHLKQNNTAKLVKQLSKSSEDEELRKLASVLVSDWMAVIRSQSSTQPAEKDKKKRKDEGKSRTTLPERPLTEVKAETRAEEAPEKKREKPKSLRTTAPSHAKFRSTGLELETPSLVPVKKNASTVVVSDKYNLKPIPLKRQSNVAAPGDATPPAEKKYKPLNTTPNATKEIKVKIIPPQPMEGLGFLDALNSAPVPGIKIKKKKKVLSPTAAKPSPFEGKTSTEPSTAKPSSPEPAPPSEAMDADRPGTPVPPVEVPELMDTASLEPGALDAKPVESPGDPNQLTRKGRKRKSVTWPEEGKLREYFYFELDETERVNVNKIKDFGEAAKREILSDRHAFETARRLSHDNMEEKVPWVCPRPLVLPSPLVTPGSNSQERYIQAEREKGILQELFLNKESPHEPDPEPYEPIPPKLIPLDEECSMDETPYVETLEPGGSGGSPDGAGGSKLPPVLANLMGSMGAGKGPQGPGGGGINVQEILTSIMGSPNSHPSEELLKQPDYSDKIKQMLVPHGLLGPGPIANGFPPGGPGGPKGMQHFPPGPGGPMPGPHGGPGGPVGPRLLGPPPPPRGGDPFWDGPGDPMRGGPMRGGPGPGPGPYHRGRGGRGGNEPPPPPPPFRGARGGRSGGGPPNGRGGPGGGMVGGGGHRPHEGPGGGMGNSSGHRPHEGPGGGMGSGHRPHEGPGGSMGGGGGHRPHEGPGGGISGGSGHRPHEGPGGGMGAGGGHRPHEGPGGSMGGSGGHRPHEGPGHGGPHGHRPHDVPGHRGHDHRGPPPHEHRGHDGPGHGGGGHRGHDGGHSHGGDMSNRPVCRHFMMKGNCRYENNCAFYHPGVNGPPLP
As to the kind of experiment: co-IP; antibody against PNUTS cross-linked to Dynabeads protein A; K562 nuclear extract of control and TOX4 KO cells; overnight at 4 °C; washed 5 times with BC-200 (200 mM KCl, 0.1% NP-40, pH 7.9); Western blot.

A further experiment addresses T2, 3× Flag-tagged TOX4 (UniProt O94842).
T2 sequence: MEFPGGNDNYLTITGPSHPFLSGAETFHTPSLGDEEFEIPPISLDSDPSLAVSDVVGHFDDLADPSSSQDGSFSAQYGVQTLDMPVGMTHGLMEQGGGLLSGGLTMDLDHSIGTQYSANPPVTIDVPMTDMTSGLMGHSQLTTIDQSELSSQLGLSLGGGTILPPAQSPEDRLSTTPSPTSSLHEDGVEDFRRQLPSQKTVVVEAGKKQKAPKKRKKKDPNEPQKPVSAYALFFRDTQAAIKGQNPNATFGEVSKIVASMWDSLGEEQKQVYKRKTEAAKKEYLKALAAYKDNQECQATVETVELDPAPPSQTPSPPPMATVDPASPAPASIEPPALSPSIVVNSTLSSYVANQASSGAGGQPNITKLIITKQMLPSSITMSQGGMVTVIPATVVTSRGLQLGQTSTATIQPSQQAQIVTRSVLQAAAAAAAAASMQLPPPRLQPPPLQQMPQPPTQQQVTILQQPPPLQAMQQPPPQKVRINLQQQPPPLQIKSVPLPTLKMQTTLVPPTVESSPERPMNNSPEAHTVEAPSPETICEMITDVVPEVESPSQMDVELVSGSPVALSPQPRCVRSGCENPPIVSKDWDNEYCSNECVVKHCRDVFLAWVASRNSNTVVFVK
Kind of experiment: co-IP; in vitro binding assay of individually purified TOX4 and PP1α, β or γ; PP1 co-immunoprecipitated with TOX4; Western blot, quantified by ImageJ; both purified.

These are yes or no findings as the source states them, for the method shown. For part of these data: Binding seen in cells or lysates may run through a third protein. Some results given as binding are weak or reduced against the parent protein; the word gives no strength. For part of these data: Sequences can lack the tags named with a protein.

On to WDR82 (from UniProt Q6UXN9 1-313), for which the binding entry in experiment [1] was “binds”.

Take “PP1γ (endogenous) (from UniProt P36873 1-323) (enzyme)”: the binding result in experiment [1] was “binds”.

Regarding “His-tagged PP1γ (from UniProt P36873 1-323) (enzyme)”, the binding entry with 3× Flag-tagged TOX4 is “binds”.
